# In PubChem BioAssay AID2685 (National Center for Advancing Translational Sciences (NCATS), 2010):
# In all, about 320,000 compounds went through this assay and about 2,100 (0.66%) were called active. This list was built around the results that the source calls inconclusive (neither active nor inactive); the mix of calls is not that of the screen. Calls follow the shape of the dose curve; as a rule, active = well fitted inhibition curve with a large enough effect in the signal ratio, with a control signal flat (not every such curve was filed as active); inconclusive = small, poorly fitted or top-dose-only effect, or effect the other way, or a change in a side signal; inactive = flat fitted curve, though single readings scatter; the % refers to the signal ratio. Where the call is inconclusive, the potency comes from a doubtful curve fit.
# Assay: qHTS Assay for Lipid Storage Modulators in Drosophila S3 Cells
# Conditions: BODIPY lipid droplet fluorescence, 18-24 h, cells fed with added oleic acid; lipid storage change, negative = inhibition: at 46.1 µM (top of the series) unless noted
# Outline: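 Laser-scanning cytometry quantifies lipid droplet accumulation (500–530 nm total intensity; droplet/cell object ratio) in oleic acid-fed (400 uM added) Drosophila S3 cells treated with a concentration series. 20 uM Triacsin C defined 100% inhibition.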
# % is scaled to controls: 0 for no effect and ±100 for the full control effect; potency is read from the fitted curve at half-maximal effect.
SMILES,"lipid storage change, negative = inhibition",Potency
CCOc1ccc(C(=O)NCC(=O)NCC(c2cccs2)N2CCOCC2)cc1 (stereo not given),inconclusive: 15.3%,
Nn1c(SCc2cn3ccsc3n2)nnc1-c1ccncc1,inconclusive: 23.9%,
Oc1ccc(/C=N/Nc2ccnc3cc(Cl)ccc23)c(O)c1O,,"inconclusive: 0.0058 µM [activator, full curve, poor fit]"
COc1ccc(OC)c(NC(=O)C2CCCN(S(C)(=O)=O)C2)c1 (stereo not given),,"inconclusive: 29.1 µM [activator, single point]"
O=C(O)CC1(c2ccc(F)cc2)C2CC3CC(C2)CC1C3 (stereo not given),,"inconclusive: 1.64 µM [falling, partial curve, poor fit]"
Cc1nnc(SCC(=O)Nc2ccc(N3CCOCC3)cc2)n1Cc1ccccc1,inconclusive: 18%,
CCN(c1ccccc1)c1nc(C#N)nc(N(CC)c2ccccc2)n1,,"inconclusive: 8.2 µM [activator, partial curve]"
O=C(CN1C(=O)CCC1=O)Nc1nc(-c2ccccn2)cs1,inconclusive: -31.7%,
CCOC(=O)CC1C(=O)NCCN1C(=O)c1ccc(Cl)cc1 (stereo not given),inconclusive: -21%,
COCCNC(=O)c1cccc(OC2CCN(Cc3ccc(C(C)C)cc3)CC2)c1,inconclusive: -23.2%,
CCN1CCCC1CNC(=O)c1cc2c(OC)c(OC)c(OC)cc2[nH]1 (stereo not given),inconclusive: 18.7%,
COc1ccc(OCC(=O)NC2CCCc3ccccc32)cc1 (stereo not given),,"inconclusive: 5.8 µM [falling, single point]"
O=C(COC(=O)/C=C/c1ccccc1)NC(=O)NCc1ccccc1,inconclusive: -8.79%,
O=C(O)C1C2C=CC(C2)C1C(=O)N1CCN(C/C=C/c2ccccc2)CC1 (stereo not given),inconclusive: -2.26%,
COc1ccccc1OCCNC(=O)c1c(-c2ccccc2Cl)noc1C,,"inconclusive: 32.6 µM [falling, single point]"
C=CCOC(=O)C1=C(C)NC(=O)NC1/C=C/c1ccccc1OC (stereo not given),inconclusive: -22.2%,
COc1ccc(-c2nnc(SC)n2C)cc1,,"inconclusive: 0.0041 µM [falling, full curve, poor fit]"
COc1ccc(Oc2coc3cc(OC(=O)c4cncc(Br)c4)ccc3c2=O)cc1,,"inconclusive: 6.51 µM [cytotoxic, single point]"
CC(C)c1c(C(=O)N/N=C/c2ccc(-c3ccccc3)cc2)nnn1-c1nonc1N,inconclusive: 99.5%,
Cc1sc(NC(=O)c2ccco2)c(CN2CCC(C)CC2)c1C,,"inconclusive: 23.1 µM [rising, partial curve]"
Cc1c(C(=O)NCc2ccccn2)oc2ccccc12,,"inconclusive: 6.51 µM [activator, partial curve]"
Cc1cccc(N2CCN(CCCNC(=O)c3ccc(NC(=O)C4=CSCCO4)cc3)CC2C)c1 (stereo not given),,"inconclusive: 6.51 µM [rising, single point]"
CCOc1ccc(Cn2ccnc2CCl)cc1[N+](=O)[O-],,"inconclusive: 4.11 µM [activator, single point]"
Cc1ccc(N2C(=O)c3ccc(C(=O)N4CCN(c5ccc(C)c(C)c5)CC4)cc3C2=O)cc1,inconclusive: -0.665%,
Cc1cccc(C)c1NC(=O)CN1CCN(CC(=O)NCC2(N3CCCCC3)CCCCC2)CC1,inconclusive: -3.33%,

SMILES,"lipid storage change, negative = inhibition",Potency
CCCCOC(=O)c1ccc(Nc2ccc([N+](=O)[O-])cn2)cc1,,"inconclusive: 1.64 µM [activator, partial curve]"
C[C@H]1CC[C@@]2(O[C@@H](CCO)C[C@@H](O)[C@@H]2O)O1,inactive,
Cc1cc(CNC(=O)[C@H](C)[C@@H]2C[C@@]2(C)[C@@H](NC(=O)OCc2ccccc2)c2ccccc2)nn1C,inconclusive: 1.85%,
Nc1ccc2nc(-c3ccccc3)sc2c1,,"inconclusive: 1.03 µM [activator, full curve]"
COc1cccc(CN2CCN(C(=O)c3ccc(-c4ccccc4)cc3)CC2)c1OC,,"inconclusive: 18.4 µM [falling, single point]"
C=CCn1c2ccccc2c(=O)c2cc(C#CC[C@@H](C)O)ccc21,,"inconclusive: 0.0411 µM [falling, partial curve]"
Cc1csc2nc(=O)c3ccccc3n12,,"inconclusive: 0.731 µM [rising, full curve]"
CC1CCCN(S(=O)(=O)c2cccc3nonc23)C1 (stereo not given),,"inconclusive: 0.82 µM [falling, single point]"
CCN(C(=O)COC(=O)c1ccc(COc2ccc3c(C)cc(=O)oc3c2)cc1)C1CCS(=O)(=O)C1 (stereo not given),inconclusive: 3.46%,
CCOc1ccc(CCNC(=O)Cn2ncn3nc(-c4ccc(OC)cc4)cc3c2=O)cc1,inconclusive: 4.94%,
O=C(CSc1ncc(-c2ccccc2)n1C1CCCC1)N1CCc2ccccc21,inconclusive: 10.6%,
CC(C)(C)N1CCC1C(N)=O (stereo not given),inconclusive: 4.12%,
CN(C)c1ncc(CN2CCC(C(=O)Nc3ccc(-n4cccn4)cc3)CC2)s1,inconclusive: 14.2%,
CNC(=O)N1c2ccccc2C=Cc2ccccc21,inconclusive: 37.2%,
CC(=O)NCCOc1nc(N2CCCCC2)nc(N2CCCCC2)n1,inconclusive: 25.4%,
COc1ccc(CC(=O)N/N=C(\C)c2ccccn2)cc1,inconclusive: 12%,
Cc1ccc(S(=O)(=O)NC(Cc2ccccc2)C(=O)NN)cc1 (stereo not given),inconclusive: -22.6%,
O=C(CN(C(=O)CCC(=O)Nc1nccs1)c1ccc(F)c(Cl)c1)NCC1CCCO1 (stereo not given),,"inconclusive: 0.517 µM [falling, full curve, poor fit]"
CCOc1ccc(CN2CCNC(=O)C2CC(=O)N(C)CC2CCOCC2)cc1 (stereo not given),,"inconclusive: 29.1 µM [activator, single point]"
CCN(CC)S(=O)(=O)c1cccc(NC(=O)COC(=O)C2CC3C=CC2C3)c1 (stereo not given),inconclusive: -9.4% [cytotoxic],
Cc1nc2c(ccc3nc(NC(=O)C4CC4)sc32)s1,inconclusive: -25.9%,
N#CC1=C2N=C(N)c3ccccc3N2C2=C(C(=O)CCC2)C1c1ccccc1F (stereo not given),inconclusive: 2.54%,
O=C(NCc1cnn(-c2ccc(F)cc2)c1)C1CCC(=O)N(C2CC2)C1 (stereo not given),,"inconclusive: 18.4 µM [falling, single point]"
COc1ccccc1C(CNC(=O)c1cc(C)nc2ccccc12)N(C)C (stereo not given),inactive,
O=C(NCCN1CCOCC1)C1CCN(Cc2ccccc2O)CC1,inconclusive: -30.9%,

SMILES,"lipid storage change, negative = inhibition",Potency
O=C(COc1ccc2c3c(c(=O)oc2c1)CCCC3)N1C[C@H]2C[C@@H](C1)c1cccc(=O)n1C2,inconclusive: 11.8%,
C=CCOc1ccc(CN(C)C(=O)CN2C(=O)c3ccccc3C2=O)cc1,,"inconclusive: 23.1 µM [activator, single point]"
CC1CCc2c(sc(N)c2C(N)=O)C1 (stereo not given),inconclusive: 30.6%,
CN(C(=O)C1CCN(S(=O)(=O)c2cccs2)CC1)c1ccccc1,inconclusive: 6.63%,
CCCn1c(C)cc(C(=O)COc2ccc(S(=O)(=O)N(CC)CC)cc2[N+](=O)[O-])c1C,,active: 25.9 µM
O=C(Nc1cccc(Cl)c1)C1C2C=CC3(O2)C1C(=O)N(CCCN1CCCCC1)C3C(=O)NC1CCCCC1 (stereo not given),,"inconclusive: 0.164 µM [falling, full curve]"
CCOC(=O)Nc1ccc([N+](=O)[O-])cc1C,inconclusive: 10.1%,
CCOc1cc(N2CCOCC2)c(OCC)cc1NC(=O)COc1cccc(Cl)c1,,"inconclusive: 6.51 µM [falling, single point]"
CCOc1[nH]n(-c2ccc(Cl)cc2)c(=O)c1C=NCc1cccnc1,inconclusive: -8.46%,
O=C(CSc1nc2ccccc2c(=O)n1Cc1ccc(F)cc1)NCc1cccs1,inconclusive: -1.56%,
CCn1c(N2CCC(C)CC2)nc2c1c(=O)n(C)c(=O)n2C,inconclusive: -10.1%,
O=C(CSc1ncn[nH]1)NC1CC2CCC1C2 (stereo not given),inconclusive: -58.2%,
Cc1ccc(S(=O)(=O)N2CCC(C(=O)OCC(=O)N(CC(C)C)C3CCS(=O)(=O)C3)CC2)cc1C (stereo not given),,"inconclusive: 4.11 µM [falling, partial curve]"
COc1cc(/C=C2/SC(=S)N(Cc3ccccc3)C2=O)ccc1OS(C)(=O)=O,inconclusive: 17.4%,
CN(CC(=O)NC(=O)NCc1ccccc1)CC(=O)Nc1ccc(Cl)c(Cl)c1,,"inconclusive: 18.4 µM [falling, partial curve, poor fit]"
COc1cc(OC)cc(C(=O)Nc2ccc(C(=O)NCC3CCCO3)cc2)c1 (stereo not given),,"inconclusive: 13 µM [falling, partial curve]"
COc1ccc(OC)c(CN2CCN(c3ccccc3OC)CC2)c1,inconclusive: -9.31%,
CCOc1ccc(S(=O)(=O)N/N=C(\C)c2ccc3c(c2)OCO3)cc1,inconclusive: -5.62%,
O=c1ccc(NS(=O)(=O)c2ccccc2Cl)cn1Cc1ccc(Cl)c(Cl)c1,inconclusive: -39.1%,
Cc1ccc(C(C)NC(=O)Cn2nc(C)c([N+](=O)[O-])c2C)cc1 (stereo not given),,"inconclusive: 18.4 µM [rising, single point]"
COc1cccc(C(=O)NCC(=O)NNc2ncnc(N)c2[N+](=O)[O-])c1,inconclusive: -35.5%,
CNc1nc(N)c(C(=O)C(C)(C)C)s1,inconclusive: 31.5%,
COc1ccc(OCCc2nnc(N)s2)cc1,inconclusive: -15.2%,
COc1ccc(NC(=O)N2CCCC2C(=O)NCCc2ccccc2)cc1 (stereo not given),inconclusive: 9.29%,
COCCNC(=O)C(c1cccs1)N(C(=O)Cn1nnc2ccccc21)c1ccc2c(c1)OCO2 (stereo not given),inconclusive: 42.2%,

# Some of these compounds in order of formula weight, largest number first:
SMILES,"lipid storage change, negative = inhibition",Potency
Cc1ccc(S(=O)(=O)N2CCC(C(=O)OCC(=O)N(CC(C)C)C3CCS(=O)(=O)C3)CC2)cc1C (stereo not given),,"inconclusive: 4.11 µM [falling, partial curve]"
O=C(CSc1nc2ccccc2c(=O)n1Cc1ccc(F)cc1)NCc1cccs1,inconclusive: -1.56%,
COc1cc(/C=C2/SC(=S)N(Cc3ccccc3)C2=O)ccc1OS(C)(=O)=O,inconclusive: 17.4%,
CN(CC(=O)NC(=O)NCc1ccccc1)CC(=O)Nc1ccc(Cl)c(Cl)c1,,"inconclusive: 18.4 µM [falling, partial curve, poor fit]"
CN(C(=O)C1CCN(S(=O)(=O)c2cccs2)CC1)c1ccccc1,inconclusive: 6.63%,
CCOc1[nH]n(-c2ccc(Cl)cc2)c(=O)c1C=NCc1cccnc1,inconclusive: -8.46%,
CCOC(=O)Nc1ccc([N+](=O)[O-])cc1C,inconclusive: 10.1%,
